# Among all 53,000 sequences or so, about 3,700 (7%) were called active.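 The calls were made as follows: active = gene knockdowns whose robust z-score for IL-1 alpha signal is at least 2 or at most -2, so actives lie on both sides; inactive = the rest.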 This is one part of the list.
# Assay: Components of the Cytosolic LPS Sensing Pathway: Gene Identification via Genome-wide siRNA Screen;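 also: robust z of the log signal after scaling to non-targeting control siRNA wells of the plate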
# Conditions: RAW264.7 macrophages, IL-1a HTRF, actives lie on both sides, screened at 100 nM (by protocol), cells primed 5 h with Pam3CSK4 first
# Procedure, shortened: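 Supernatant IL-1a by HTRF from RAW264.7 cells primed with Pam3CSK4 (5 hours) and transfected with LipidA (24 hour) after 48h siRNA knockdown at 100 nM; cell viability checked with CellTiter-Glo.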
row,Sequence,z-score
1,GCAAGUCAGCUACAACUGUTT against Rnasek,inactive: 0.0313
2,GCAUCAGAGAAGUGCGAGCTT against Pafah2,inactive: -0.0121
3,GGGACUUUCCAAACUAUAUTT against Irak1bp1,inactive: -1.52
4,GGUAAAGAGGGAAGAGAUCTT against Akr1d1,inactive: -0.875
5,GCUGGAUCACACUAUAUGUTT against Pgbd1,inactive: 0.127
6,GGUCAUUCAUAAGCUCCUGTT against Ncf1,inactive: -0.482
7,CGUGUUCUAUGAUGGUAAUTT against Selenoo,inactive: -0.197
8,GGAAUUUUUUUCUUCGAUCTT against Sema3a,inactive: -0.0318
9,GGAGAAAACGUGAUGAGGATT against Snrnp200,inactive: -1.54
10,CCUCAUCGUAAGAGACAUATT against Arhgef2,inactive: -0.903
11,GGAAGAGAAGUAUUGAGGATT against Pdgfa,inactive: -0.873
12,GCCACACUUAAGUCAGACCTT against Tprn,inactive: 0.597
13,CCUAUCAAAUUAAAUGCGCTT against Muc13,inactive: -0.6
14,CCAACAGAACAAUCUGCAUTT against Olfr672,inactive: 1.84
15,GGAGCAGGAACAGUAUUUCTT against B4gat1,inactive: 0.731
16,GGAAUACCACAUGCUUUUGTT against Ldah,inactive: -0.288
17,GCAAUACGGAGUCUAGCCCTT against Hykk,inactive: 1.63
18,GGCUAUCUUUUCAGCUUUATT against Sox30,inactive: 0.212
19,GGUUAUAGACAUCCUUCAUTT against Acot5,inactive: 0.816
20,GCCAUUACCCAAGAACUUUTT against Acsm4,inactive: 0.121
21,GGUUCAUCUUCAGCCAUCCTT against Cdcp1,inactive: -0.905
22,GGCAAGAUUUAGAGAAGCATT against Dnah8,inactive: -0.665

row,Sequence,z-score
1,GGGAAUGAAUGCUUUACAUTT against Aspn,inactive: 0.213
2,GGUCUUGGAGGAUCCCAAUTT against Tex13a,inactive: -1.55
3,GGAUGACUUCUUCAAGCCATT against Nmrk1,inactive: -0.485
4,CCUCUGUCAGUUGGUUAACTT against Mon2,active: -2.33
5,GGUGGUAACAUUAACUGAGTT against Cenpk,inactive: 0.41
6,GGUGUGGUCUAUGACACGUTT against Hdac5,inactive: 0.346
7,CGCCAGGUCAAGGAAUGGUTT against Sh2d1b2,inactive: 1.24
8,GGACAAGCUGGAAUUAAACTT against Crocc,inactive: -0.179
9,GGAGAACUUCAGUGAGUCCTT against Ambp,active: -2.43
10,GGAUUAUGUGUCGUUUGGATT against Dnajc16,inactive: -0.17
11,GGCAGUGGAUGUACAAAAATT against Sh3bgrl2,inactive: -1.5
12,GGAGUCAGGGCUGAUACAUTT against Lpin3,inactive: 1.6
13,GGGAGUUCCAAUCAUUCUUTT against 2200002J24Rik,inactive: 0.667
14,GCAAACUCAAGGCAUACAUTT against A930017M01Rik,active: 4.27
15,GCGUAGCAGCCUACAGUCATT against Egflam,inactive: -1.44
16,GCCGAAGUAGCCAAAGCUATT against Clip2,inactive: -1.13
17,GCAAUACGAAGGCGAAAGCTT against P3h4,inactive: -1.68
18,GGCACUACUAAGAACCUUATT against Tmem69,inactive: 0.728
19,GGACCCUGACUCAUUGGCATT against Ubqln3,inactive: 0.164
20,GCAGCAUGUGAAAAGAAGGTT against 2010003K11Rik,inactive: -0.646
21,GGACAGUCAAACAGAGAAGTT against Sun1,inactive: -0.232
22,GGCACUUUAGUCUUUUCUCTT against Zfp296,inactive: -0.634

row,Sequence,z-score
1,GGGACGAAUUCAGCAAUUUTT against Pcdha6,inactive: -0.253
2,GGAAUACAUCUACAAAGAGTT against Dock9,inactive: -1.7
3,GGUUGAGUUUCAGUGCAUCTT against Klhl28,inactive: -0.632
4,GGACUUGUCCAGCAUUGUATT against Donson,inactive: 0.771
5,GGCCAAUCAAGAGUAGUAUTT against Fgb,inactive: 1.76
6,GGACAUGUUUGGUGACUAUTT against Helq,inactive: -0.669
7,GCCUUUUAGCUGUUCAGGATT against Nlrc5,inactive: 1.83
8,GGAAUUUAAAAGUAGCAAGTT against Zfp770,inactive: 1.94
9,GGAAGGACUGUCAAAUGGCTT against Med11,inactive: -0.171
10,GGCUCGUGAUCGAAAUCUUTT against Tmed1,inactive: -0.00483
11,GGACUGGUCCAUGAGAAGGTT against Klc4,inactive: 0.802
12,GGACUCGAGCACCAAAAAGTT against Dyrk1b,inactive: 1.44
13,GGAACUCCUGACAAAGAUGTT against Hscb,inactive: 0.708
14,GGAUCCUUCUCUAAGGGCCTT against Dgcr8,inactive: -0.416
15,GCAUCUACUAUCCAAGUGATT against Alox8,active: 2
16,GGAGAUUCUAAAGACAGAGTT against Zfp687,inactive: -0.149
17,GCUAAUGUGGAGGACUCACTT against Chml,inactive: -0.574
18,GCCUAUUGUGGUAUUACAUTT against Cyp2c40,inactive: -0.856
19,GGCAGAAAGCUGAUGAAGCTT against Pcx,inactive: -0.398
20,GCUGAGUUGGCUCAUCAACTT against Kdm2b,inactive: -0.134
21,GGAUUAAAGGAAGUGACUGTT against Oscar,inactive: -1.65
22,GCCAAGAAUAGCAUUACUGTT against Abraxas1,active: -2.45

# Reformatted: entries from further up
row	Sequence	z-score
1	GGGACGAAUUCAGCAAUUUTT against Pcdha6	inactive: -0.253
18	GCCUAUUGUGGUAUUACAUTT against Cyp2c40	inactive: -0.856

# Following part

row,Sequence,z-score
1,GGUGUUCCUGUCUUUCAUGTT against Chordc1,inactive: -0.171
2,GGCCAUGUGAAGAUGGUGGTT against Ank1,inactive: 0.188
3,UGUAUUUUGUCAAUGUGGCTT against Olfr104-ps,inactive: 0.65
4,GUCUACAUCAACAUGCCUGTT against Hcst,inactive: 0.729
5,GGUGUUCAAAAUUCCUGCCTT against Mbl2,inactive: 0.0864
6,GGGCCUUAUACAUUUUUCATT against Calm1,inactive: 1.35
7,CCCUCUACAUGAUGACUGUTT against Olfr1280,inactive: 0.335
8,CGAAUAUGAUACCAGAAAGTT against Il5ra,inactive: -0.868
9,GGCUGUGUAUGAAACAUUUTT against Susd4,inactive: 0.954
10,GCCAGUGGUAAAAUUGUUATT against Fam114a2,inactive: 0.168
11,GCCUUGACCUGUCUUUCAATT against Tlr2,inactive: -0.161
12,GGAAGACGUAUUUGUACACTT against Ybx1,inactive: -0.523
13,GGCCAUGAGUCACAUGCUATT against Hcn3,inactive: -0.373
14,GGACGUGCUUACAUUGUACTT against Pcdhb9,inactive: -0.212
15,GCCUUGGCUGAAACUCUCATT against Cybb,inactive: 0.612
16,UAGGUUCAUUAUGGUGCCATT against Cnih4,inactive: -0.337
17,GGAAAAGACGGGAGAUUUGTT against Napepld,inactive: 1.37
18,GGACGAGAAACCAGUGACATT against Etaa1,inactive: -0.796
19,GCAGCUCAAUUAGAGUCCATT against Gart,inactive: -0.11
20,CGAUGAUCUUACACUACCCTT against Irx6,inactive: -0.164
21,GCUGGAAGUAGUCCAUACATT against Ufl1,inactive: -0.733
22,GGUCUAUAGGAAGAAAUGGTT against Kcnip3,inactive: -0.141

row,Sequence,z-score
1,GCAUUAGGUAAAACUCUUATT against Plpp6,inactive: 1.9
2,GCGAUUGUUGCCUAUGGGUTT against Higd1a,inactive: 0.0263
3,GCAAUGUCUAUUCAAGGUUTT against Dpy19l1,inactive: 0.835
4,GCCUCUUUGUAAAAAUUCUTT against Atp6v0b,inactive: -1.51
5,GGGAGGAACAUCACCUCAGTT against Vmn2r123,inactive: 0.327
6,GGACAUUGUGACAUCAUGUTT against Diras2,inactive: -1.12
7,CGGCCCUAUAGUUUUCUGGTT against Fancb,inactive: 1.08
8,GCACCGAGACUUGUCAGAGTT against Rab36,inactive: 1.13
9,GGCCUUCUGUGUGGUCUAUTT against Kcnk7,inactive: 0.124
10,CGAGCUUAAUCAUUGCCUGTT against Eprs,inactive: -1.57
11,GGCUUUCCUAGGGAUGUCUTT against S100a3,inactive: -1.76
12,CCUCUGCAUCUUGGCACCATT against Tmem205,inactive: -0.0753
13,GGAAUUCAUCUACAGAGAATT against Dpp6,inactive: -0.239
14,GGUGUAGUAGUGAACUUGATT against Trib1,inactive: 0.285
15,GGUGUUCUUUGACAGUGCCTT against Atp5d,inactive: 0.107
16,CGAUGGAUCGCUUCCUACATT against Muc4,inactive: 1.55
17,GGAUUUAUGCAUUUCUCCATT against Exosc8,inactive: -1.77
18,GCAAUGGUUGAGUUUGAGUTT against Hnrnpll,inactive: -0.711
19,GCAGUGGUGUAAACCUCAUTT against Pde3b,inactive: -0.794

# Four records picked at random from the list so far, as already listed:
row,Sequence,z-score
17,GGAUUUAUGCAUUUCUCCATT against Exosc8,inactive: -1.77
5,GGGAGGAACAUCACCUCAGTT against Vmn2r123,inactive: 0.327
8,GCACCGAGACUUGUCAGAGTT against Rab36,inactive: 1.13
13,GGAAUUCAUCUACAGAGAATT against Dpp6,inactive: -0.239

# Reference: PubChem BioAssay AID1508600 (Functional Genomics Laboratory (NCATS/FGL), 2020)
